The supplement of paper PMC12819154, “High-throughput peptide-centric local stability assay extends protein–ligand identification to membrane proteins, tissues and bacteria” (Nature Structural & Molecular Biology, 2025)
This is one part of the list. Most values lie at the level of the controls, where differences are scatter.

Amino acid sequences for entries named in this document (tags omitted). A change or cut given only in a name is not applied to a line headed by its entry.
UniProt P15508, whole entry: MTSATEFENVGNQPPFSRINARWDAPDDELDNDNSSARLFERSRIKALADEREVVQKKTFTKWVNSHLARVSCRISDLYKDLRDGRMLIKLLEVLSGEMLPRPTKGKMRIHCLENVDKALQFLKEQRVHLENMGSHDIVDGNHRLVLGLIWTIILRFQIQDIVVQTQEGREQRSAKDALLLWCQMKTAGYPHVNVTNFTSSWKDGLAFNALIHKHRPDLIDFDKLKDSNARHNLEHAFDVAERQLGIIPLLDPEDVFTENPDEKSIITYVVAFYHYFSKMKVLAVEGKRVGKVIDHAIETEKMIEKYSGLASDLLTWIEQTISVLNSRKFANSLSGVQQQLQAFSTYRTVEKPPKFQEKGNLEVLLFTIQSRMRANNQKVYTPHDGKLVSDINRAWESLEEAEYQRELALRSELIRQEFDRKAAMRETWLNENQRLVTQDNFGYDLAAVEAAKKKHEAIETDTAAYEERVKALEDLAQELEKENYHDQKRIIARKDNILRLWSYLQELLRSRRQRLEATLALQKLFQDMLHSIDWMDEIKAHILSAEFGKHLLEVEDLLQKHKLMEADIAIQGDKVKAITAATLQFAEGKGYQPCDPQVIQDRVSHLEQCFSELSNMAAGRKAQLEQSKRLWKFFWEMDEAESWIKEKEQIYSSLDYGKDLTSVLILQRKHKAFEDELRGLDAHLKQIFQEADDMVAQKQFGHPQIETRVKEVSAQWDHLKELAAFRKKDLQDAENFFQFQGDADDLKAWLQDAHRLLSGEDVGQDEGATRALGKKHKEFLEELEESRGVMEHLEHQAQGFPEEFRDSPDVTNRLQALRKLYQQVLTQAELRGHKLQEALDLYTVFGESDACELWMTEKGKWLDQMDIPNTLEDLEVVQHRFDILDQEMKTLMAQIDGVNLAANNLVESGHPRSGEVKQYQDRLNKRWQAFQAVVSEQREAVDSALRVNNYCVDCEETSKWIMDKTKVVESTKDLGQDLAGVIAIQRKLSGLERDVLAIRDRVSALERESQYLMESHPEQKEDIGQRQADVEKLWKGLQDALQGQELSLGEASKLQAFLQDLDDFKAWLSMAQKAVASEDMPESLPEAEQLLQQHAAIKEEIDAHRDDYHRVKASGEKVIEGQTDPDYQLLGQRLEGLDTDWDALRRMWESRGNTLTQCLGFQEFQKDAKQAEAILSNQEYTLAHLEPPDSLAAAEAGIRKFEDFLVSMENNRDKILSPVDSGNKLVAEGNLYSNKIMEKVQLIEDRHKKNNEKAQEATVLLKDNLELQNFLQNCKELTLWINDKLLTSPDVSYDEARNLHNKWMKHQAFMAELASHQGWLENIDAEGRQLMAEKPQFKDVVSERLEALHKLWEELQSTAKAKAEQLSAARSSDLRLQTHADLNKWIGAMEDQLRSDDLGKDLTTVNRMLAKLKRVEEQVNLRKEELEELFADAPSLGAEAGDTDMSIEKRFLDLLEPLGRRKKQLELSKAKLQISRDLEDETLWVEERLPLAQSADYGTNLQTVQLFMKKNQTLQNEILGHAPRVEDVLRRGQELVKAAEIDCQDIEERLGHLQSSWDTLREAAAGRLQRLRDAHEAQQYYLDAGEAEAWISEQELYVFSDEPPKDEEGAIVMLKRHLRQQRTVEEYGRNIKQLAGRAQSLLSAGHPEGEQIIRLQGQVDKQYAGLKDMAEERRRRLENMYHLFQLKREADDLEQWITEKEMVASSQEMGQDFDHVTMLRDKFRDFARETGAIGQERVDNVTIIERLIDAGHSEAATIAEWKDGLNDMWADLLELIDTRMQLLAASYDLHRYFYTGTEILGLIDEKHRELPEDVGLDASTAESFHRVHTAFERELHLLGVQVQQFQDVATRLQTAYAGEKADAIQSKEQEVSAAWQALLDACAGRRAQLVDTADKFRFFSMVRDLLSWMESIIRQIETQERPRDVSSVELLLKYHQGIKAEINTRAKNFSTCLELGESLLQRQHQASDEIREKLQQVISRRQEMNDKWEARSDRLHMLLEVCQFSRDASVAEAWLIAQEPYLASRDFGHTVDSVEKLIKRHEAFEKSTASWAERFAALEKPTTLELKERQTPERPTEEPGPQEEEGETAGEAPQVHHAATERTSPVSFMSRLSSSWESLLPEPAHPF
UniProt P05555, whole entry: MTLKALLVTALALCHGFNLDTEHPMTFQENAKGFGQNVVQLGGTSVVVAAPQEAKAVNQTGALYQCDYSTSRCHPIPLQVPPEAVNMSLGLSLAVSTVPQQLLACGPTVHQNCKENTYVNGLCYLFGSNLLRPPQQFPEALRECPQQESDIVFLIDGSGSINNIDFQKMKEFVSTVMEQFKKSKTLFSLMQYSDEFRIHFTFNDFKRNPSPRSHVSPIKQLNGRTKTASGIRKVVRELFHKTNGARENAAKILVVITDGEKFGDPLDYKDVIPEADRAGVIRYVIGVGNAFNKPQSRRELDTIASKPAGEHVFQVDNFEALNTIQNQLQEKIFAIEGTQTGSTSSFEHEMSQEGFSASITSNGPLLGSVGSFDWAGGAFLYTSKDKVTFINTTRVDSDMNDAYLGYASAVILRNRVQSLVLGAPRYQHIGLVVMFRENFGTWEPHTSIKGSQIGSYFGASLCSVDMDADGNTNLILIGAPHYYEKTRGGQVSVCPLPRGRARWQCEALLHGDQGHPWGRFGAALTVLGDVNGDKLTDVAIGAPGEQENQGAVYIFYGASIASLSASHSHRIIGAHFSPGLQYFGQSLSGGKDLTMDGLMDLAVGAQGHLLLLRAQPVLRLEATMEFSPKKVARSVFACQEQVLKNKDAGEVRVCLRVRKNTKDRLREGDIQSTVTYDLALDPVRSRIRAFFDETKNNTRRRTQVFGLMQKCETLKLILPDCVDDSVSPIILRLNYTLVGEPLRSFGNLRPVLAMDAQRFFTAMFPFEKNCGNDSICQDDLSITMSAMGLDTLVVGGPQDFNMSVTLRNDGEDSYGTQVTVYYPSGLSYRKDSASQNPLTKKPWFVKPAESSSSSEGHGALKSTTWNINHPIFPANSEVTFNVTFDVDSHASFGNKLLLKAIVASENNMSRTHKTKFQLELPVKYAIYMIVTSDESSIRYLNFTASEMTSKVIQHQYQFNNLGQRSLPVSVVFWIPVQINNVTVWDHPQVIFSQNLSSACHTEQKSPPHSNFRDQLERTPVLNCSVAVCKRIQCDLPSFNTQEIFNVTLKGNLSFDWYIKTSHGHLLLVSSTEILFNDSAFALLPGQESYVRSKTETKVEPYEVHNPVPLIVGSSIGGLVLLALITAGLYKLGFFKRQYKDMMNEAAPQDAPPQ
UniProt P0CG14: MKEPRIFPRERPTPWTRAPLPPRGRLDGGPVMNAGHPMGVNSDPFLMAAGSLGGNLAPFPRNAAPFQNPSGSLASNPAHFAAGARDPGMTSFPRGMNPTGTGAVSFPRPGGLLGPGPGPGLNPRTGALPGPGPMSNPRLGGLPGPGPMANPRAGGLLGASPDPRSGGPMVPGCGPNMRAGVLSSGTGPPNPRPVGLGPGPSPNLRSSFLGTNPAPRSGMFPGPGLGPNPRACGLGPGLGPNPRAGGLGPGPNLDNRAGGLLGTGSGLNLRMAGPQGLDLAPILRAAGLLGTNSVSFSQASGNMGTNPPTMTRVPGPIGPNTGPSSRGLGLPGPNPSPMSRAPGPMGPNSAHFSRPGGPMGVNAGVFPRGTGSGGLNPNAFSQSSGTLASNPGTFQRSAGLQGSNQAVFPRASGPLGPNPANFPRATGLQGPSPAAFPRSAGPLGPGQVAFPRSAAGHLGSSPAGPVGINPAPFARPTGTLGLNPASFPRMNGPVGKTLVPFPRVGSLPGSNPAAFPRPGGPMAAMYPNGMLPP
UniProt P04117: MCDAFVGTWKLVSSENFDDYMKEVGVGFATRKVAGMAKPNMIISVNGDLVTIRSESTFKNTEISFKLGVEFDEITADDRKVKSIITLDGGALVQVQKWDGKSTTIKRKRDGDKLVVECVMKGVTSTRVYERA
UniProt P16330: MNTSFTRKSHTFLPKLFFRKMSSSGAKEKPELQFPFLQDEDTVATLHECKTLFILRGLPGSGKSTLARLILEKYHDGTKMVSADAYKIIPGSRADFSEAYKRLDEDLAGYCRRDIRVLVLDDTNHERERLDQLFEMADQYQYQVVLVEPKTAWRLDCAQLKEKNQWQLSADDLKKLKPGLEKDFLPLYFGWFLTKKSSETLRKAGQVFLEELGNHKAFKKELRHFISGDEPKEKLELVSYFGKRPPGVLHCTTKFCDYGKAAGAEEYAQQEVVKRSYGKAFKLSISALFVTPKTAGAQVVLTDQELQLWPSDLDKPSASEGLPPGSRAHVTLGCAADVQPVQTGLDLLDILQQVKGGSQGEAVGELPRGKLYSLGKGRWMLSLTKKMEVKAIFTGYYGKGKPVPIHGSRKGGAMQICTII
UniProt P07759: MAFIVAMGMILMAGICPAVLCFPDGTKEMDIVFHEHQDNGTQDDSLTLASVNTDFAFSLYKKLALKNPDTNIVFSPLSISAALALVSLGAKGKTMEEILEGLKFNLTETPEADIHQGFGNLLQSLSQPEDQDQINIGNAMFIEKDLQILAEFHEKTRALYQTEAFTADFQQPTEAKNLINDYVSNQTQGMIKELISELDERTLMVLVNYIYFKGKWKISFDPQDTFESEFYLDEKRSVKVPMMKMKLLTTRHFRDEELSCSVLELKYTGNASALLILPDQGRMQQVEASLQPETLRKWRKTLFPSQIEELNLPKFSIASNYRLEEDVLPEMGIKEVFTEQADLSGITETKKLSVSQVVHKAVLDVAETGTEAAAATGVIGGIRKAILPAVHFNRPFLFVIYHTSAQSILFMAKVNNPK
UniProt P17717: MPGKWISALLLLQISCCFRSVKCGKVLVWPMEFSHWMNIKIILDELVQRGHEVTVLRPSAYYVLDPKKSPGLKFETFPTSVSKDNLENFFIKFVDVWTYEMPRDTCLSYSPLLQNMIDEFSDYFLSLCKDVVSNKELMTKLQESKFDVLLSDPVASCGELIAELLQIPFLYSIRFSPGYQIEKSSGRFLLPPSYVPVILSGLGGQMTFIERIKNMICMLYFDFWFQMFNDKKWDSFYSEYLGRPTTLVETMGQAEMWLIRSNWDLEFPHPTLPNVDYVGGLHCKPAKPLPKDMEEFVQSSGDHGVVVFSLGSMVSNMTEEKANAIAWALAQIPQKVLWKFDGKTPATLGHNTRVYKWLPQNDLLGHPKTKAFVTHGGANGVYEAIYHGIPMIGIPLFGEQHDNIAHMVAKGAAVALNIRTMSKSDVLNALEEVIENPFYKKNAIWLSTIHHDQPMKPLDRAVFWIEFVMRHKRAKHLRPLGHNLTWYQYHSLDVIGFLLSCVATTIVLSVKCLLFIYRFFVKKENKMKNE
UniProt P11862, whole entry: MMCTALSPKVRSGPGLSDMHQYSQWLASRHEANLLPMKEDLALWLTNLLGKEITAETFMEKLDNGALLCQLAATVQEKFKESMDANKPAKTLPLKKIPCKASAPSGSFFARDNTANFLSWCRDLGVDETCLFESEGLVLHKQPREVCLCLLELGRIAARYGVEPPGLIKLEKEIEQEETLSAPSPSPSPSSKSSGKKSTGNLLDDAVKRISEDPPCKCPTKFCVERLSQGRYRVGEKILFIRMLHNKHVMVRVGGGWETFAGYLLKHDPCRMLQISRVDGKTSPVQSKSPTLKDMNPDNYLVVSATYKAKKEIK
UniProt P04247: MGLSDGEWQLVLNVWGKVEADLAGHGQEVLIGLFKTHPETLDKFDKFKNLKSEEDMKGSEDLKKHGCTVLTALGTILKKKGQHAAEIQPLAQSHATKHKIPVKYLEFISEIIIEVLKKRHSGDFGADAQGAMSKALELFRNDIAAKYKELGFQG
UniProt P09405, whole entry: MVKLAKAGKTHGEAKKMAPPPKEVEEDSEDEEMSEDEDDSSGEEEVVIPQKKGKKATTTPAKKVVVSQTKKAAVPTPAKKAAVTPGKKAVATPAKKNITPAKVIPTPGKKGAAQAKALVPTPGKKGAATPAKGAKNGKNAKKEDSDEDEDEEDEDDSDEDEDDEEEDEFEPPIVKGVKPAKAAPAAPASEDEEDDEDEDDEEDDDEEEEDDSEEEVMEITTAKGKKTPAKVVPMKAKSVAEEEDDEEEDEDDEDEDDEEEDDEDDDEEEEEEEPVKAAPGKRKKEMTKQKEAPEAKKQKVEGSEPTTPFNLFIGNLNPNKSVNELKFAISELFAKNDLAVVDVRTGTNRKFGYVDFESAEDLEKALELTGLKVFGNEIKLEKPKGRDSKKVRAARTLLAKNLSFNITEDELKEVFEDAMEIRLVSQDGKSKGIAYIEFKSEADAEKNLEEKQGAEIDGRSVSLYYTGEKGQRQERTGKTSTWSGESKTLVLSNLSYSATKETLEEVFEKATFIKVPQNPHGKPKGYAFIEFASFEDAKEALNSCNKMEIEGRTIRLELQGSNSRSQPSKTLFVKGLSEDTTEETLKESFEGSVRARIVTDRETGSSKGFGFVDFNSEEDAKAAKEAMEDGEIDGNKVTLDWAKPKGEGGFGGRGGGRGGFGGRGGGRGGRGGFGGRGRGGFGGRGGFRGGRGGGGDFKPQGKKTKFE

Compound: CN[C@@H]1C[C@H]2O[C@@](C)([C@@H]1OC)n1c3ccccc3c3c4c(c5c6ccccc6n2c5c31)C(=O)NC4 [staurosporine]
Test: log2 fold change of pooled soluble protein (PISA), ligand vs vehicle (log2 ratio); higher = more thermally stabilized
Conditions: ligand concentration: 20 uM; assay format: PISA pool 52.9/55.5/58.6 C

How did the “log2 fold change of pooled soluble protein” value (“log2 fold change” below) turn out when UniProt P15508 was run?
The value was -0.099.

UniProt P05555 was tested. Which “log2 fold change” value did it give?
Its value is 0.0452.

How did the “log2 fold change” value turn out when UniProt P10637 was run?
The value was -0.0208.

Which “log2 fold change” value does the source give for UniProt P16332 here?
Its value is -0.0578.

Which “log2 fold change” value does the source give for UniProt P14602 here?
Its value is -0.0225.

For UniProt P01898, which “log2 fold change” value is on record?
The value was -0.00487.

UniProt P0CG14 was tested. Which “log2 fold change” value did it give?
Its value is -0.06.

UniProt P14094 was tested. Which “log2 fold change” value did it give?
Its value is 0.088.

UniProt P04117 was tested. Which “log2 fold change” value did it give?
Its value is 0.00991.

Which “log2 fold change” value does the source give for UniProt P26645 here?
Its value is 0.157.

How did the “log2 fold change” value turn out when UniProt P10648 was run?
The value was 0.119.

UniProt P08113 was tested. Which “log2 fold change” value did it give?
The value was 0.0318.

With UniProt P16330 as the target, how does the “log2 fold change” value read?
The value was -0.0604.

UniProt P16951 was tested. Which “log2 fold change” value did it give?
The value was 0.104.

Which “log2 fold change” value does the source give for UniProt P05202 here?
Its value is 0.00508.

How did the “log2 fold change” value turn out when UniProt P06151 was run?
Its value is 0.0183.

With UniProt P06909 as the target, how does the “log2 fold change” value read?
Its value is -0.0439.

With UniProt P24456 as the target, how does the “log2 fold change” value read?
Its value is 0.175.

Which “log2 fold change” value does the source give for UniProt P07759 here?
Its value is 0.0817.

P0DP26;P0DP27;P0DP28 was tested. Which “log2 fold change” value did it give?
Its value is 0.25.

UniProt P13439 was tested. Which “log2 fold change” value did it give?
The value was -0.18.

UniProt P15105 was tested. Which “log2 fold change” value did it give?
Its value is 0.0762.

For UniProt P09671, which “log2 fold change” value is on record?
Its value is -0.299.

UniProt P08752 was tested. Which “log2 fold change” value did it give?
The value was 0.162.

With UniProt P28078 as the target, how does the “log2 fold change” value read?
The value was 0.268.

Which “log2 fold change” value does the source give for UniProt P19783 here?
Its value is -0.00832.

With UniProt P17717 as the target, how does the “log2 fold change” value read?
The value was -0.178.

For UniProt P26231, which “log2 fold change” value is on record?
Its value is -0.0517.

How did the “log2 fold change” value turn out when UniProt P23953 was run?
Its value is -0.00684.

For UniProt P11862, which “log2 fold change” value is on record?
Its value is -0.0147.

With UniProt P15626 as the target, how does the “log2 fold change” value read?
Its value is 0.106.

With UniProt P04247 as the target, how does the “log2 fold change” value read?
Its value is -0.322.

Which “log2 fold change” value does the source give for UniProt P09405 here?
Its value is -0.00866.

With UniProt P11087 as the target, how does the “log2 fold change” value read?
The value was 0.044.

With UniProt P13634 as the target, how does the “log2 fold change” value read?
The value was -0.0641.

UniProt P16015 was tested. Which “log2 fold change” value did it give?
The value was -0.0595.

For UniProt P14246, which “log2 fold change” value is on record?
The value was -0.137.
